Our source for the binding values is publication PMC5591878.

Protein sequences, listed by entry. Tags and fused reporters are not part of them.
UniProt P48580: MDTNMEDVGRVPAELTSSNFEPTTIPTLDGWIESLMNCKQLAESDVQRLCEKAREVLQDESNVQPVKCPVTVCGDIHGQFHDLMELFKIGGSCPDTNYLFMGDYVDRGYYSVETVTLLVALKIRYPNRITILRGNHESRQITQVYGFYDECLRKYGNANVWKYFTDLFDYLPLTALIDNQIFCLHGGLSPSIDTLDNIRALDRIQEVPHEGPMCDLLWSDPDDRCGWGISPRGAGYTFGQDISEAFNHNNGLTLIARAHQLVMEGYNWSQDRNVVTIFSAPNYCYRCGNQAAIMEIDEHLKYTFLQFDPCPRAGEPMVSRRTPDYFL

These are yes or no findings as the source states them, for the method shown. In cells and extracts the contact can be indirect. Some binding calls cover weakened binding; strength is not graded here. For some assays here: Where a sequence is shown, tags or fusion partners need not be part of it.

The target in assay [1] is T1, COT1, nuclear Dbf2-related (NDR) Ser/Thr kinase (Neurospora crassa (endogenous in the myc-pph1 strain)) (UniProt P38679).
T1 sequence: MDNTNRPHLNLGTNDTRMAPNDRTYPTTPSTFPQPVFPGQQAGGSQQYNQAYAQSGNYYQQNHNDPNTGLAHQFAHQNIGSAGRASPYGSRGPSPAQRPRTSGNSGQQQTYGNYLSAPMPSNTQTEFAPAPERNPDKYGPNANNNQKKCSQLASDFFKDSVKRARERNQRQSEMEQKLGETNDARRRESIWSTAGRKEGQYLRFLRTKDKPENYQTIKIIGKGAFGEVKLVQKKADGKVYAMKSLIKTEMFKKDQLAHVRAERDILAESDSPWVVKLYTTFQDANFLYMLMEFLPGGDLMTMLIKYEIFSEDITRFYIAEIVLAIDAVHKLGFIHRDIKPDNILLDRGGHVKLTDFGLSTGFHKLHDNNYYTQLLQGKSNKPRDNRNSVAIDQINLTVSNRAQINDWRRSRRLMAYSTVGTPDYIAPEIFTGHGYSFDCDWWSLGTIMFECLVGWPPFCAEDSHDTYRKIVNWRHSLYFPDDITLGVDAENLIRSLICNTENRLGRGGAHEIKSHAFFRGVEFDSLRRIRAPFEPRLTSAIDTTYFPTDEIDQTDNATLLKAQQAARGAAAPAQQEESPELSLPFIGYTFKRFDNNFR
Nature of the assay: co-IP; cleared crude N. crassa mycelial extract incubated 2 h at 4°C with anti-MYC or anti-COT1 antibodies, then with A/G PLUS-Agarose overnight at 4°C; the last two washes with 0.5 M NaCl; western blot with anti-COT1, anti-MYC or anti-GFP antibodies. In general terms: Immunoblotting shows a protein as a band on a membrane.

Assay [2] concerns the target MYC::PPH1, PP2A catalytic subunit PPH1 with MYC tag (Neurospora crassa) (UniProt P48580). The description is as above.

On to “MYC::PPH1, PP2A catalytic subunit PPH1 with MYC tag (from UniProt P48580 1-327) (enzyme)”, for which the binding entry in assay [1] is “binds”.

B1: COT1, nuclear Dbf2-related (NDR) Ser/Thr kinase (protein, UniProt P38679 1-598)
chain: MDNTNRPHLNLGTNDTRMAPNDRTYPTTPSTFPQPVFPGQQAGGSQQYNQAYAQSGNYYQQNHNDPNTGLAHQFAHQNIGSAGRASPYGSRGPSPAQRPRTSGNSGQQQTYGNYLSAPMPSNTQTEFAPAPERNPDKYGPNANNNQKKCSQLASDFFKDSVKRARERNQRQSEMEQKLGETNDARRRESIWSTAGRKEGQYLRFLRTKDKPENYQTIKIIGKGAFGEVKLVQKKADGKVYAMKSLIKTEMFKKDQLAHVRAERDILAESDSPWVVKLYTTFQDANFLYMLMEFLPGGDLMTMLIKYEIFSEDITRFYIAEIVLAIDAVHKLGFIHRDIKPDNILLDRGGHVKLTDFGLSTGFHKLHDNNYYTQLLQGKSNKPRDNRNSVAIDQINLTVSNRAQINDWRRSRRLMAYSTVGTPDYIAPEIFTGHGYSFDCDWWSLGTIMFECLVGWPPFCAEDSHDTYRKIVNWRHSLYFPDDITLGVDAENLIRSLICNTENRLGRGGAHEIKSHAFFRGVEFDSLRRIRAPFEPRLTSAIDTTYFPTDEIDQTDNATLLKAQQAARGAAAPAQQEESPELSLPFIGYTFKRFDNNFR
Take B1: in assay [2], the binding result is reported as “binds”.
